Laboratory results published in patent US20050272647A1, “Arthrodial cartilage extracellular matrix degradation inhibitor” (priority 2002, published 2005).

Test system: rabbit knee articular cartilage primary culture cells
Assay: PG destruction inhibitory activity in rabbit cartilage primary culture cell (stimulation with retinoic acid)
Conditions: Oryctolagus cuniculus, 48 h, read-out: PG degradation inhibition (%)

O=C(CCCCCCC(=O)Nc1ccccc1)NO [SAHA]
inhibition at 0.3 µM: 13% | inhibition at 3 µM: 71%
